# US20050096288
# Construct, isoform or probe ends are uncertain for at least one entry. A negative result means that nothing was seen under these conditions.
# System: HDL (Homo sapiens)
# Assay: EMSA
# Details: HDL binds none of the oligos; purified native protein; protein details: plasma high-density lipoprotein particle; label: 32P
row,Sequence,binding result
1,GGGAAACCGAAACTG (double strand) [ISRE oligonucleotide],no binding
2,GTCCAATTGGTC (double strand) [FAS oligonucleotide],no binding
